Assay results: PMC3836738
These are yes or no findings as the source states them, for the method shown. Binding seen in cells or lysates may run through a third protein. Some binding calls cover weakened binding; strength is not graded here. For some of these results: Sequences can lack the tags named with a protein.

Protein sequences, listed by entry. Tags and fused reporters are not part of them.
UniProt Q86YI8: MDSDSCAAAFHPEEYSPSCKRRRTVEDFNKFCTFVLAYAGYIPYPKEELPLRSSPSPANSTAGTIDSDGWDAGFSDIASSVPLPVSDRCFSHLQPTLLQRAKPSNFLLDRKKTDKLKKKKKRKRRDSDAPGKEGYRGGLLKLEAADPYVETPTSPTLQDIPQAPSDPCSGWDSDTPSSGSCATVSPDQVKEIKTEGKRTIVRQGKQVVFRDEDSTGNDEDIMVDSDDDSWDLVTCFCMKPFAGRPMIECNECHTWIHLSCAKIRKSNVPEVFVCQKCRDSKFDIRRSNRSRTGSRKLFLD

How the values were obtained:
[1] = biological target: T1, SPOC1 (survival-time associated PHD protein in ovarian cancer 1/PHF13), endogenous (human (endogenous in H1299)), Q86YI8; assay: co-IP; H1299 cells transfected with empty plasmid or pE1B-55K-wt; total cell extracts 24 h after transfection; precipitated with rabbit polyclonal SPOC1 antibody, blot with 2A6 (E1B-55K); settings: remark: other sources report otherwise
[2] = biological target: SPOC1, exogenous, doxycyclin-induced in stably transfected DLD1 and U2OS cells (human), Q86YI8; assay: co-IP; DLD1 and U2OS cells with doxycyclin-induced SPOC1, infected with H5pg4100, H5pm4149 or H5pm4154 at 50 FFU per cell; total cell extracts 24 h post infection; precipitated with rabbit polyclonal SPOC1 antibody, blot with 2A6 (E1B-55K) and B6-8 (E2A/DBP); settings: remark: other sources report otherwise
[3] = biological target: T1, SPOC1 (survival-time associated PHD …); assay: co-IP; H1299 cells infected with H5pg4100, H5pm4149 or H5pm4154 at 50 FFU per cell; total cell extracts 24 and 48 h post infection; precipitated with rabbit polyclonal SPOC1 antibody, blot with 2A6 (E1B-55K) and B6-8 (E2A/DBP); settings: remark: other sources report otherwise
[4] = biological target: SPOC1 (survival-time associated PHD protein in ovarian cancer 1/PHF13), endogenous (human (endogenous in H1299)) (UniProt Q86YI8); assay: co-IP; H1299 cells transfected with pVII expression constructs (ppVII, pVII) or infected with H5pg4100 at 50 FFU per cell; total cell extracts 24 h after transfection or infection; precipitated with rabbit polyclonal SPOC1 antibody, blot with 3F10 (HA) and pVII antibody

B1: Ad5 E1B-55K (early region 1B 55 kDa protein), wild type, expressed from a pcDNA3-derived plasmid, P03243 1-496 (protein)
chain: MERRNPSERGVPAGFSGHASVESGCETQESPATVVFRPPGDNTDGGAAAAAGGSQAAAAGAEPMEPESRPGPSGMNVVQVAELYPELRRILTITEDGQGLKGVKRERGACEATEEARNLAFSLMTRHRPECITFQQIKDNCANELDLLAQKYSIEQLTTYWLQPGDDFEEAIRVYAKVALRPDCKYKISKLVNIRNCCYISGNGAEVEIDTEDRVAFRCSMINMWPGVLGMDGVVIMNVRFTGPNFSGTVFLANTNLILHGVSFYGFNNTCVEAWTDVRVRGCAFYCCWKGVVCRPKSRASIKKCLFERCTLGILSEGNSRVRHNVASDCGCFMLVKSVAVIKHNMVCGNCEDRASQMLTCSDGNCHLLKTIHVASHSRKAWPVFEHNILTRCSLHLGNRRGVFLPYQCNLSHTKILLEPESMSKVNLNGVFDMTMKIWKVLRYDETRTRCRPCECGGKHIRNQPVMLDVTEELRPDHLVLACTRAEFGSSDEDTD
For B1, which binding [1] is on record?
Its binding is “binds”.

B2: Ad5 E1B-55K expressed in virus-infected cells, P03243 1-496 (protein)
chain: MERRNPSERGVPAGFSGHASVESGCETQESPATVVFRPPGDNTDGGAAAAAGGSQAAAAGAEPMEPESRPGPSGMNVVQVAELYPELRRILTITEDGQGLKGVKRERGACEATEEARNLAFSLMTRHRPECITFQQIKDNCANELDLLAQKYSIEQLTTYWLQPGDDFEEAIRVYAKVALRPDCKYKISKLVNIRNCCYISGNGAEVEIDTEDRVAFRCSMINMWPGVLGMDGVVIMNVRFTGPNFSGTVFLANTNLILHGVSFYGFNNTCVEAWTDVRVRGCAFYCCWKGVVCRPKSRASIKKCLFERCTLGILSEGNSRVRHNVASDCGCFMLVKSVAVIKHNMVCGNCEDRASQMLTCSDGNCHLLKTIHVASHSRKAWPVFEHNILTRCSLHLGNRRGVFLPYQCNLSHTKILLEPESMSKVNLNGVFDMTMKIWKVLRYDETRTRCRPCECGGKHIRNQPVMLDVTEELRPDHLVLACTRAEFGSSDEDTD
Which binding [2] does the source give for B2 here?
The binding was “binds”.

What about the binding [3] of the same binder?
Its binding is “binds”.

B3: Ad core protein VII, precursor form (ppVII: prepVII), HA-tagged, transfected (protein, UniProt P68951 1-198)
chain: MSILISPSNNTGWGLRFPSKMFGGAKKRSDQHPVRVRGHYRAPWGAHKRGRTGRTTVDDAIDAVVEEARNYTPTPPPVSTVDAAIQTVVRGARRYAKMKRRRRRVARRHRRRPGTAAQRAAAALLNRARRTGRRAAMRAARRLAAGIVTVPPRSRRRAAAAAAAAISAMTQGRRGNVYWVRDSVSGLRVPVRTRPPRN
How did the binding [4] turn out when B3 was run?
Its binding is “binds”.
